# Where “and” joins values, the source holds several entries; their conditions need not be identical. Equal entries are not always repeated. Some of the results follow.
# Assay: GPR55 agonists via beta-arrestin recruitment, primary screen, imaging, U2OS cells, beta-arrestin-GFP redistribution (AID 1961);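 further: U2OS osteosarcoma cells stably expressing GPR55 and beta-arrestin-GFP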
# Details: measured here: cytotoxicity, cells analyzed, at 10 µM
row,SMILES,cell count
1,O=P(Nc1nccs1)(Oc1ccccc1)Oc1ccccc1,234 cells
2,O=P(Nc1nccs1)(c1ccccc1)c1nc2ccccc2s1 (configuration not stated),380 cells
3,CCOP1(=S)c2c(C)nn(CCC#N)c2N=C(c2ccccc2F)N1C (configuration not stated),373 cells
4,O=C(O)c1cccc(Nc2c([N+](=O)[O-])cc([N+](=O)[O-])cc2[N+](=O)[O-])c1,342 cells
5,CS(=O)(=O)c1cc([N+](=O)[O-])c2no[n+]([O-])c2c1,377 cells
6,Nc1ccccc1[As](=O)(O)c1ccccc1,383 cells
7,O=C(O)COc1ccc([As](=O)(O)O)cc1[N+](=O)[O-],335 cells
8,NC(=O)Nc1ccc([As](=O)(O)O)cc1,340 cells
9,CCOP1(=S)c2c(C)nn(CCC#N)c2N=C(c2ccc(F)cc2)N1C (configuration not stated),358 cells
10,CN(C(=O)Cc1ccccc1)[C@@H]1CC[C@]2(CCCO2)C[C@H]1N1CCCC1,342 cells
11,CC1=NCCc2c1[nH]c1ccccc21.O=[N+]([O-])c1cc([N+](=O)[O-])c(O)c([N+](=O)[O-])c1,291 cells
12,O=[N+]([O-])c1ccc2c(c1)nnn2O,318 cells
13,O=C(OC1CN2CCC1CC2)c1ccc(Cl)cc1 (configuration not stated),381 cells
14,CS(=O)(=O)c1ccc(Cl)c(NC(=O)COC(=O)C(O)(c2ccccc2)c2ccccc2)c1,357 cells
15,COc1ccccc1OP(C)(=O)Nc1cccc(Br)c1 (configuration not stated),364 cells
16,O=[As](O)(O)c1cccnc1,367 cells
17,COc1cc(C(=O)NCC2(N3CCOCC3)CCCCC2)cc(Cl)c1OC(C)C,261 cells
18,Cc1cc(C)cc(OP(C)(=O)Nc2ccc(C)cc2C)c1 (configuration not stated),352 cells
19,Cc1cccc(OCC(=O)OC2CN3CCC2CC3)c1 (configuration not stated),327 cells
20,O=[As](O)(c1cccc(O)c1)c1cccc(O)c1,371 cells
21,CCOC(=O)c1ccc(NP(C)(=O)Oc2cc(C)cc(C)c2)cc1 (configuration not stated),334 cells
22,Nc1cccc2c([As](=O)(O)O)cccc12,358 cells
23,Cc1ccc(NCCc2c([N+](=O)[O-])cc([N+](=O)[O-])cc2[N+](=O)[O-])cc1,294 cells
24,Cc1cc(C)cc(OP(C)(=O)Nc2ccccn2)c1 (configuration not stated),324 cells

row,SMILES,cell count
1,CP(=O)(Nc1cccc(Br)c1)Oc1ccccc1 (configuration not stated),245 cells
2,Cc1ccc(C)c(NP(C)(=O)Oc2ccccc2)c1 (configuration not stated),320 cells
3,CCCOP(=S)(Nc1nc(N)cc(=O)[nH]1)OCCC,335 cells
4,CCOP(=O)(Nc1cccc2ccccc12)OCC,350 cells
5,O=[N+]([O-])c1cc([N+](=O)[O-])c(-n2nnc3ccccc32)c([N+](=O)[O-])c1,211 cells
6,CCOP(=O)(NC(=NC(C)c1ccccc1)NC(C)c1ccccc1)OCC (configuration not stated),346 cells
7,O=P1(Nc2ccccn2)COc2ccccc2OC1,327 cells
8,CCC1=CC2Cc3nc4ccc(Cl)cc4c(N)c3C(C1)C2 (configuration not stated),378 cells
9,CCOP(=O)(Nc1ccc(C)cn1)OCC,332 cells
10,CC(C)(C)C(=O)NC(Sc1ncccn1)C(Cl)(Cl)Cl (configuration not stated),348 cells
11,Clc1n[nH]nc1-c1nn[nH][15n]1,403 cells
12,CC(C)/C=N\N=C(\N)N[N+](=O)[O-],247 cells
13,CN(C(=O)Cc1ccc(Cl)c(Cl)c1)[C@@H]1CCCC[C@H]1N1CCCC1,339 cells
14,Cc1nc2ccc3ccccc3c2s1.O=[N+]([O-])c1cc([N+](=O)[O-])c(O)c([N+](=O)[O-])c1,278 cells
15,O=[As](O)(c1ccccc1Br)c1ccccc1Br,334 cells
16,CC1CCC(C(C)C)C(OP(=O)(Nc2ccccn2)c2ccccc2)C1 (configuration not stated),235 cells
17,Cc1ccc(C(=O)OC2CN3CCC2CC3)cc1 (configuration not stated),379 cells
18,Cc1nn(-c2ccccc2)c2c1P(=O)(N1CCOCC1)N(C)C(c1ccccc1)=N2 (configuration not stated),386 cells
19,COc1cc(C2NCCC3(OCCO3)C2(C)C)cc(OC)c1OC.O=[N+]([O-])c1cc([N+](=O)[O-])c(O)c([N+](=O)[O-])c1 (configuration not stated),327 cells
20,CCOC(=O)C(CC)C1=NC(C)(C)Cc2ccccc21.O=[N+]([O-])c1cc([N+](=O)[O-])c(O)c([N+](=O)[O-])c1 (configuration not stated),329 cells
21,CN(C)C1(CNC(=O)c2ccc(S(C)(=O)=O)cc2)CCCCC1,367 cells
22,O=[N+]([O-])c1cc([N+](=O)[O-])c(Nc2nnnn2CCO)c([N+](=O)[O-])c1,346 cells
23,O=C(/C=C/c1ccccc1)OC1CN2CCC1CC2 (configuration not stated),320 cells
24,COc1ccccc1OP(C)(=O)Nc1c(C)cccc1C (configuration not stated),349 cells

row,SMILES,cell count
1,CN1CCCCC1COC(=O)C1(O)c2ccccc2CCc2ccccc21 (configuration not stated),262 cells
2,O=P1(Nc2ncccn2)COc2ccccc2OC1,346 cells
3,CCCOc1ccc(NP(C)(=O)Oc2ccc(Cl)cc2)cc1 (configuration not stated),230 cells
4,Nc1cccc([As](=O)(O)c2ccccc2)c1,330 cells
5,CP(=O)(Nc1ccc(SC(F)(F)F)cc1)Oc1ccccc1 (configuration not stated),340 cells
6,O=[As](O)(c1cccs1)c1cccs1,315 cells
7,Cc1ccc(OCC(=O)OC2CN3CCC2CC3)cc1 (configuration not stated),305 cells
8,O=P1(Nc2ccc(Br)cn2)COc2ccccc2OC1,343 cells
9,CCOC(=O)Nc1ccc([As](=O)(O)O)c(O)c1,361 cells
10,Cc1cc(SC(NC(=O)c2ccccc2)C(Cl)(Cl)Cl)nc(C(C)C)n1 (configuration not stated),285 cells
11,CCCCOc1ccc(C(=O)NCC2(N3CCCCC3)CCCCC2)cc1OC,380 cells
12,CP(=S)(Nn1cnnc1)Oc1ccccc1 (configuration not stated),362 cells
13,CCOC(=O)Nc1cccc([As](=O)(O)O)c1,362 cells
14,COc1ccccc1OP(C)(=O)Nc1ccccc1 (configuration not stated),273 cells
15,O=P(Nc1ccccn1)(c1cccc2ccccc12)c1cccc2ccccc12,432 cells
16,Cc1cc(SC(NC=O)C(Cl)(Cl)Cl)ncn1 (configuration not stated),280 cells
17,O=[N+]([O-])c1ccc(Nc2ccc(Oc3ccc([N+](=O)[O-])cc3[N+](=O)[O-])cc2)c([N+](=O)[O-])c1,374 cells
18,CP(=O)(Nc1ccccc1Br)Oc1ccccc1 (configuration not stated),354 cells
19,CP(=O)(Oc1ccccc1)OC(c1ccccc1)C(F)(F)F (configuration not stated),251 cells
20,COP1(=S)c2c(C)nn(CCC#N)c2N=C(c2ccc(F)cc2)N1C (configuration not stated),396 cells
21,Cc1cccc(C)c1OP(C)(=O)Nc1ccc(SC(F)(F)F)cc1 (configuration not stated),298 cells
22,CP(=O)(Nc1ccc(SC(F)(F)F)cc1)Oc1ccc(Cl)cc1 (configuration not stated),369 cells
23,O=C(Nc1ccncc1[N+](=O)[O-])c1ccc([N+](=O)[O-])cc1[N+](=O)[O-],378 cells
24,Cc1cc(C)cc(OP(C)(=O)Nc2ccc(SC(F)(F)F)cc2)c1 (configuration not stated),276 cells

row,SMILES,cell count
1,O=C(COc1ccccc1)OC1CN2CCC1CC2 (configuration not stated),286 cells
2,CP(=O)(NC(=O)Nc1ccccc1)Oc1ccccc1 (configuration not stated),341 cells
3,CCc1ccc(OP(C)(=O)N2CCN(c3ccc([N+](=O)[O-])cc3)CC2)cc1 (configuration not stated),353 cells
4,CCOP(C)(=S)SCC(=O)NC(C)C(=O)O (configuration not stated),299 cells
5,O=C(OC1CN2CCC1CC2)c1cccc([N+](=O)[O-])c1 (configuration not stated),331 cells
6,CCOC(=O)c1ccc(NP(C)(=O)Oc2ccc(OC)cc2)cc1 (configuration not stated),297 cells
7,CCOC(=O)c1ccc(NC(=O)C(C)(CCl)SC)cc1 (configuration not stated),349 cells
8,CCC(C)N(CC(C)C)C(=S)SC(NC(C)=O)C(Cl)(Cl)Cl (configuration not stated),343 cells
9,CP(=O)(Nc1ccccn1)Oc1ccc(Cl)cc1 (configuration not stated),360 cells
10,Cc1c2c(nc3ccccc13)SC(C(Cl)Cl)C2 (configuration not stated),296 cells
11,CCN(CC)CCCOC(=O)C(O)(c1ccccc1)c1ccccc1,237 cells
12,Cc1cc(=O)[nH]c(N[N+](=O)[O-])n1,185 cells
13,O=C(OC1CN2CCC1CC2)C12CC3CC(CC(C3)C1)C2 (configuration not stated),383 cells
14,COc1cc(I)ccc1[As](=O)(O)O,363 cells
15,COc1ccc2nc(NP(=O)(c3ccccc3)c3ccccc3)sc2c1,240 cells
16,COc1ccc(N/C(=N/P(=O)(N2CCOCC2)N2CCOCC2)N2CCOCC2)cc1,263 cells
17,C[As](=O)(O)c1cccc(C(=O)O)c1,385 cells
18,O=[As](O)(c1ccc(O)cc1)c1ccccc1O,388 cells
19,Cc1cccc(C)c1OP(C)(N)=O (configuration not stated),199 cells
20,Cc1ccc(OP(=O)(Nc2ccc([N+](=O)[O-])cn2)Oc2ccc(C)cc2)cc1,355 cells
21,CC(C)(C)c1ccc(OP(C)(=O)Nc2ccc(SC(F)(F)F)cc2)cc1 (configuration not stated),344 cells
22,O=[N+]([O-])c1ccc2c(c1)C=Nc1ccccc1O2,243 cells
23,Cc1ccc2nc3c(c(C)c2c1)CC(C(Cl)Cl)S3 (configuration not stated),356 cells
24,ClCCSc1nnc(-c2cccnc2)o1,292 cells

row,SMILES,cell count
1,CCOC(=O)c1ccc(NP(C)(=O)Oc2ccccc2)cc1 (configuration not stated),355 cells
2,CC(C)c1ccc(OP(=O)(Nc2ccccn2)Oc2ccccc2F)cc1 (configuration not stated),343 cells
3,Cc1ccc(NP(C)(=O)Oc2ccccc2)c(C)c1 (configuration not stated),375 cells
4,COc1ccccc1OP(C)(=O)Nc1ccc(C)cc1 (configuration not stated),312 cells
5,COc1ccc(OP(C)(=O)Nc2cccc(F)c2)cc1 (configuration not stated),330 cells
6,O=[N+]([O-])c1cc([N+](=O)[O-])c(-c2ccn[nH]2)s1,334 cells
7,COc1ccccc1OP(C)(=O)Nc1cc(Cl)ccc1C (configuration not stated),420 cells
8,CC(C)NC(=O)NP(=O)(Oc1ccccc1)Oc1ccccc1,261 cells
9,CCN(CC)C(=S)SC(NC=O)C(Cl)(Cl)Cl (configuration not stated),444 cells
10,Cc1cc(C)cc(OP(C)(N)=O)c1 (configuration not stated),222 cells
11,O=P(Nc1nc2ccc(Cl)cc2s1)(c1ccccc1)c1ccccc1,351 cells
12,Cc1cc(C)cc(OP(C)(=O)Nc2cccc(C(F)(F)F)c2)c1 (configuration not stated),393 cells
13,CC(=O)Nc1ccc([As](=O)(O)O)cc1,322 cells
14,O=C(O)c1ccccc1[As](=O)(O)O,380 cells
15,COc1ccc(OP(C)(=O)Nc2ccccc2Br)cc1 (configuration not stated),268 cells
16,COc1ccccc1OP(C)(=O)Nc1ccc(C)c(C)c1 (configuration not stated),312 cells
17,Cc1ccc(NP(=O)(Oc2ccccc2F)Oc2ccccc2F)nc1,285 cells
18,Cc1cc(SC(NC(=O)c2ccc(F)cc2)C(Cl)(Cl)Cl)ncn1 (configuration not stated),287 cells
19,CCOP(=O)(Nc1ccccc1)OCC,348 cells and 317 cells
20,O=[N+]([O-])c1cc([N+](=O)[O-])c(CCN2CCOCC2)c([N+](=O)[O-])c1,356 cells
21,Cc1nc2ccc3ccccc3c2o1.O=[N+]([O-])c1cc([N+](=O)[O-])c(O)c([N+](=O)[O-])c1,421 cells

# Source: PubChem BioAssay AID1961 (Sanford-Burnham Center for Chemical Genomics, 2009)
